Taken from: PubChem BioAssay AID504804 (Drosophila RNAi Screening Center, 2011)
In all, the deposit lists about 19,000 reagents; shown is an unselected part of those that have a named target and a result. Over the whole deposit, 47 (0.25%) are marked active. 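Signals are raw, not normalised; exact z-scores behind calls not deposited; actives needed confirmation, so some wells reaching 2 SD are inactive.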 A plus sign joins genes that one reagent is predicted to hit.

Screen: 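Fly genes whose loss lessens doxorubicin-driven cell death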 (primary screen)
Cells: Drosophila Kc cells
Knock-down reagent: long dsRNA against Drosophila genes, 0.5 µg dsRNA per well
Timing: 96 h (48 h knock-down, then 48 h drug)
Treatment: doxorubicin 5 µg/ml for 48 h, added 48 h after dsRNA
Read-out: 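Viability measured as cellular ATP by luminescence after 48 h knock-down then 48 h doxorubicin at 5 µg/ml; unnormalised plate counts for each replicate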
Reading the numbers: raw ATP luminescence: higher = more viable cells, protection from doxorubicin
Active means: 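z-score of 2 or more over plate mean in both duplicates, retained only when retests and separate dsRNAs confirm the protection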

predicted target	dsRNA	raw ATP luminescence, replicate 1	raw ATP luminescence, replicate 2	outcome
Iru (Iruka)	DRSC14457	84450	29293	inactive
Atg10 (Autophagy-related 10)	DRSC06172	30457	93263	inactive
CG32276	DRSC08027	1.43e5	1.76e5	inactive
PpN58A (Protein phosphatase N at 58A)	DRSC04642	63997	58323	inactive
CG8944	DRSC20128	1.87e5	1.61e5	inactive
CG8112	DRSC16377	57173	44957	inactive
side-IV (sidestep IV)	DRSC14833	76480	71350	inactive
BHD (Birt-Hogg-Dube)	DRSC11017	47173	39033	inactive
sano (serrano)	DRSC06165	72977	87430	inactive
alpha-Est6 (alpha-Esterase-6)	DRSC12618	44250	37277	inactive
Tep3 (Thioester-containing protein 3)	DRSC03452	30140	22700	inactive
Shark (SH2 ankyrin repeat kinase)	DRSC07680	57810	52540	inactive
CCT1 (Chaperonin containing TCP1 subunit 1)	DRSC16877	34190	45990	inactive
CG32248	DRSC08102	1.33e5	1.81e5	inactive
CG8929	DRSC07298	58013	43340	inactive
wg (wingless)	DRSC03636	17087	17007	inactive
CycA (Cyclin A)	DRSC09132	96947	1.04e5	inactive
CycA (Cyclin A)	DRSC11123	41570	36283	inactive
Arl6IP1 (ADP-ribosylation factor-like 6 interacting protein 1)	DRSC14231	74710	56740	inactive
Gfrl (Glial cell line-derived neurotrophic family receptor-like)	DRSC15197	49920	46100	inactive
Gfrl (Glial cell line-derived neurotrophic family receptor-like)	DRSC15199	63130	72650	inactive
Gfrl (Glial cell line-derived neurotrophic family receptor-like)	DRSC15565	44747	41143	inactive
Gfrl (Glial cell line-derived neurotrophic family receptor-like)	DRSC15719	51920	60130	inactive
CG33969 + fbl	DRSC11886	66613	61603	inactive
CG33111	DRSC14208	71730	59880	inactive
CG33111	DRSC14444	71980	71560	inactive
Arpc3A (Actin-related protein 2/3 complex, subunit 3A)	DRSC15596	64820	55790	inactive
fand (fandango)	DRSC06967	79893	61633	inactive
CG43795	DRSC04192	46870	65923	inactive
CG43795	DRSC04193	50400	63533	inactive
CG43795	DRSC04194	58117	46777	inactive
CG43795	DRSC04309	57317	47283	inactive
CG43795	DRSC04310	54207	46557	inactive
CG14174	DRSC10175	86270	69177	inactive
und (uninitiated)	DRSC03629	99563	63017	inactive
Pgant4 (Polypeptide N-Acetylgalactosaminyltransferase 4)	DRSC00717	29113	31693	inactive
RpS27 (Ribosomal protein S27)	DRSC14244	37900	35050	inactive
CG32532	DRSC19556	3.42e5	3.03e5	inactive
CG32532	DRSC19557	3.21e5	3.42e5	inactive
CG32532	DRSC19558	3.87e5	3.83e5	inactive
pyr (pyramus)	DRSC06319	1.33e5	1.10e5	inactive
ebd2 (earthbound 2)	DRSC11682	66807	56570	inactive
CG15196	DRSC19643	2.88e5	2.85e5	inactive
ATPsyndelta (ATP synthase, delta subunit)	DRSC18248	3.04e5	2.45e5	inactive
CG42570	DRSC09391	58817	1.00e5	inactive
foi (fear-of-intimacy)	DRSC10719	69697	80617	inactive
DZIP1	DRSC14620	75640	53740	inactive
Pus10 (Pseudouridine synthase 10)	DRSC00629	1.04e5	77850	inactive
spdo (sanpodo)	DRSC13988	2.77e5	2.48e5	inactive
dachs	DRSC02072	1.26e5	94063	inactive
dachs	DRSC02191	36607	78873	inactive
Tdh (L-threonine dehydrogenase)	DRSC11788	23010	21540	inactive
Lztr1 (Leucine zipper like transcription regulator 1)	DRSC18176	53340	50090	inactive
Lztr1 (Leucine zipper like transcription regulator 1)	DRSC18647	61250	58880	inactive
hoe1 (hoepel1)	DRSC00265	1.16e5	1.06e5	inactive
hoe1 (hoepel1)	DRSC00333	30773	37510	inactive
hoe1 (hoepel1)	DRSC00353	31377	42677	inactive
CG12498	DRSC18635	45620	46990	inactive
CG31111	DRSC14649	41510	35630	inactive
kek5 (kekkon 5)	DRSC19438	3.11e5	3.03e5	inactive
ValRS (Valyl-tRNA synthetase)	DRSC06864	54830	49570	inactive
CG32069 + Blos2	DRSC10621	46593	37700	inactive
Elba1 (Early boundary activity 1)	DRSC00276	25577	33783	inactive
promL (prominin-like)	DRSC08733	38313	55713	inactive
CG34247	DRSC09933	65937	59063	inactive
CG10920	DRSC17765	44050	41150	inactive
CG17636	DRSC20648	3.66e5	3.53e5	inactive
Gapvd1 (GTPase activating protein and VPS9 domains 1)	DRSC19752	3.14e5	2.51e5	inactive
NKAIN (Na,K-ATPase Interacting)	DRSC04531	59663	78963	inactive
Acph-1 (Acid phosphatase 1)	DRSC14103	42870	42930	inactive
PMCA (plasma membrane calcium ATPase)	DRSC17113	2.51e5	2.26e5	inactive
PMCA (plasma membrane calcium ATPase)	DRSC17114	2.69e5	2.58e5	inactive
CG15213	DRSC10213	84513	77427	inactive
Gpo3 (Glycerophosphate oxidase 3)	DRSC01978	78280	96717	inactive
hyx (hyrax)	DRSC14462	80750	38983	inactive
CG14546	DRSC14890	83660	74070	inactive
CG11560	DRSC09843	28327	37213	inactive
Or7a (Odorant receptor 7a)	DRSC18691	31010	45090	inactive
CG4686	DRSC15622	73540	54030	inactive
LanB1	DRSC03360	1.14e5	57793	inactive
dan (distal antenna)	DRSC14406	33487	33363	inactive
CG13634	DRSC14635	57670	61100	inactive
CG6656	DRSC16085	42730	45180	inactive
CG5854	DRSC15894	1.97e5	2.25e5	inactive
